For at least one entry, the source does not settle the construct or the ends of the probe.
Test system: cardiac troponin T (cTnT)
Test: electrical aptasensor (rGO relative resistance change)
Conditions: response from 1 pg/mL to 10 ng/mL, 5'-amine, coupled to rGO via PBSE, 1x PBS pH 7.4 or 10-fold diluted human serum in 1x PBS, aptamer immobilized on rGO, ethanolamine blocked, binding temperature not stated, commercial protein, single-stranded DNA

ATACGGGAGCCAACACCAGGACTAACATTATAAGAATTGCGAATAATCATTGGAGAGCAGGTGTGACGGAT [cTnT aptamer (OTC Biotech 091)]
binding result (1x PBS, LOD 1.2 pg/mL (not a Kd)): binds
binding result (10-fold diluted human serum in 1x PBS, LOD 1.7 pg/mL (not a Kd)): binds
